Reference: PubChem BioAssay AID1259290 (Sanger Institute, 2017)

Screen: 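Identify kinases needed for colorectal cancer cell survival, with or without anchor drugs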 (primary screen)
System: human SNUC1 colorectal cancer cells
Reagent: siRNA pool against human genes
Treatment: anchor drugs BYL719 1 µM, cetuximab 5 µg/ml or trametinib 10 nM, or DMSO vehicle alone
Detection: 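Viability averaged over replicates and scaled to non-targeting siRNA, robust z-score with no drug, and synergy scores by drug for BYL719, cetuximab and trametinib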
Reading the numbers: viability z-score, siRNA alone: higher = more viable cells; low values mean essential gene
Hit rule: 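a knock-down without drug scoring a robust z under -3 counts as essential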
Calls: active = essential: knock-down alone cut viability (z below -3); inactive = no clear viability loss with knock-down alone
In all, the deposit lists 794 reagents; shown is a random part of them. 9 of all reagents (1.1%) count as active. 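Calls rest on knock-down alone, not drug synergy; synergy above 0.15 was grouped apart and does not affect calls.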 Further read-outs or replicates are left out here. Not given: the amount of reagent, the time to read-out.

target gene | PubChem SID | viability z-score, siRNA alone | call
CDC7 | SID56478594 | 0.31 | inactive
IKBKG | SID152147833 | 0.936 | inactive
PI4K2A | SID135621249 | 0.339 | inactive
BRD3 | SID135620912 | 0.936 | inactive
IRAK1 | SID56478862 | 0.76 | inactive
AK4 | SID152149659 | -0.492 | inactive
DTYMK | SID135621237 | -0.546 | inactive
PRKDC | SID56478960 | 0.929 | inactive
HIPK2 | SID56478619 | 0.0583 | inactive
CALM3 | SID152148336 | 0.153 | inactive
RBM10 | SID134313901 | 0.846 | inactive
GAK | SID152148846 | -1.22 | inactive
MGA | SID135624287 | -2.2 | inactive
VRK2 | SID152152279 | -0.978 | inactive
NUP107 | SID152154550 | -2.81 | inactive
AK5 | SID56478914 | -0.56 | inactive
FRK | SID56478519 | 0.587 | inactive
PIP5K1C | SID134310630 | -0.981 | inactive
TK2 | SID152153963 | -0.727 | inactive
CKMT1B | SID135621236 | 0.936 | inactive
AGK | SID56479172 | 0.491 | inactive

The list goes on, starting with the last 2 of the part before.
target gene | PubChem SID | viability z-score, siRNA alone | call
CKMT1B | SID135621236 | 0.936 | inactive
AGK | SID56479172 | 0.491 | inactive
PHKG2 | SID135620902 | 0.936 | inactive
AXIN2 | SID135621652 | -1.77 | inactive
EPHA2 | SID135620614 | -0.187 | inactive
MLKL | SID56479010 | 0.525 | inactive
DGKI | SID56479093 | -1.33 | inactive
MET | SID56478534 | 0.583 | inactive
MARK1 | SID152146970 | 0.00368 | inactive
MATK | SID152153842 | -0.743 | inactive
CDK11A | SID152154784 | -2.18 | inactive
NME1 | SID56479166 | 0.936 | inactive
BRDT | SID152149808 | 0.936 | inactive
MAP4K4 | SID56478747 | 0.0925 | inactive
CDKL5 | SID135620888 | 0.402 | inactive
